Results deposited as PubChem BioAssay AID1259280 (Sanger Institute, 2017)
In all, the deposit lists 794 reagents; below is a random part of them. 12 of all reagents (1.5%) were called active. 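Calls cover knock-down without drug only; synergy scores stand apart, values above 0.15 being treated as synergy.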 No viability above 1 is reported: the scale is capped. Further read-outs or replicates are left out here. Not given: the amount of reagent, the time to read-out.

Aim: 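Kinome siRNA screen for partners that synergise with BYL719, cetuximab or trametinib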 (primary screen)
Cells: human SNU407 colorectal cancer cells
Reagent: siRNA pool against human genes
Challenge: anchor drugs BYL719 at 1 µM, cetuximab at 5 µg/ml or trametinib at 10 nM, or DMSO vehicle alone; exposure time not given
Measured: 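Viability per well scaled to a non-targeting pool and averaged over replicates, with a robust z-score from controls and a synergy score per anchor drug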
Reading the numbers: viability z-score, no drug and viability vs control, no drug: higher = more cells survive the knock-down
Units: viability vs control, no drug in fraction of control
Rule for the call: 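a knock-down counts as essential when its robust viability z-score without drug is below -3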
Meaning of the calls: active = essential (knock-down alone kills cells); inactive = no change without drug

NLK (nemo like kinase) [SID56478865]
- viability z-score, no drug: 0.901
- viability vs control, no drug: 1
- Outcome: inactive

PAK5 (p21 (RAC1) activated kinase 5) [SID56478749]
- viability z-score, no drug: -0.783
- viability vs control, no drug: 0.871
- Outcome: inactive

MAGI1 [SID152150294]
- viability z-score, no drug: 0.901
- viability vs control, no drug: 1
- Outcome: inactive

PAK2 (p21 (RAC1) activated kinase 2) [SID135620709]
- viability z-score, no drug: 0.869
- viability vs control, no drug: 0.998
- Outcome: inactive

CIT (citron rho-interacting serine/threonine kinase) [SID56478810]
- viability z-score, no drug: -1.49
- viability vs control, no drug: 0.818
- Outcome: inactive

CSNK1G2 (casein kinase 1 gamma 2) [SID152151854]
- viability z-score, no drug: 0.558
- viability vs control, no drug: 0.974
- Outcome: inactive

IP6K2 (inositol hexakisphosphate kinase 2) [SID56479106]
- viability z-score, no drug: 0.901
- viability vs control, no drug: 1
- Outcome: inactive

CLSPN (claspin) [SID134310856]
- viability z-score, no drug: -1.06
- viability vs control, no drug: 0.85
- Outcome: inactive

RTN4 (reticulon 4) [SID134315213]
- viability z-score, no drug: 0.56
- viability vs control, no drug: 0.974
- Outcome: inactive

CDC7 (cell division cycle 7) [SID56478594]
- viability z-score, no drug: -0.661
- viability vs control, no drug: 0.881
- Outcome: inactive

PRKDC (protein kinase, DNA-activated, catalytic subunit) [SID56478960]
- viability z-score, no drug: -0.623
- viability vs control, no drug: 0.884
- Outcome: inactive

LATS1 (large tumor suppressor kinase 1) [SID56478819]
- viability z-score, no drug: -0.383
- viability vs control, no drug: 0.902
- Outcome: inactive

IRAK3 (interleukin 1 receptor associated kinase 3) [SID56478864]
- viability z-score, no drug: -2.49
- viability vs control, no drug: 0.741
- Outcome: inactive

BRD4 (bromodomain containing 4) [SID152154839]
- viability z-score, no drug: -0.133
- viability vs control, no drug: 0.921
- Outcome: inactive

In a second layout: results already given.
| gene | PubChem SID | viability z-score, no drug | viability vs control, no drug | Outcome |
| --- | --- | --- | --- | --- |
| CLSPN (claspin) | SID134310856 | -1.06 | 0.85 | inactive |
| RTN4 (reticulon 4) | SID134315213 | 0.56 | 0.974 | inactive |
| CDC7 (cell division cycle 7) | SID56478594 | -0.661 | 0.881 | inactive |

The listing continues.
NEK9 (NIMA related kinase 9) [SID56478903]
- viability z-score, no drug: 0.858
- viability vs control, no drug: 0.997
- Outcome: inactive

PFKFB4 (6-phosphofructo-2-kinase/fructose-2,6-biphosphatase 4) [SID152152940]
- viability z-score, no drug: -1.68
- viability vs control, no drug: 0.803
- Outcome: inactive

AAK1 (AP2 associated kinase 1) [SID152151067]
- viability z-score, no drug: -0.771
- viability vs control, no drug: 0.872
- Outcome: inactive

UCK1 (uridine-cytidine kinase 1) [SID56478768]
- viability z-score, no drug: -0.434
- viability vs control, no drug: 0.898
- Outcome: inactive

GUK1 (guanylate kinase 1) [SID152156775]
- viability z-score, no drug: 0.747
- viability vs control, no drug: 0.988
- Outcome: inactive

PTGS1 (prostaglandin-endoperoxide synthase 1) [SID134310518]
- viability z-score, no drug: 0.587
- viability vs control, no drug: 0.976
- Outcome: inactive

AK7 (adenylate kinase 7) [SID152153423]
- viability z-score, no drug: -0.632
- viability vs control, no drug: 0.883
- Outcome: inactive

OXSR1 (oxidative stress responsive kinase 1) [SID152151868]
- viability z-score, no drug: 0.0952
- viability vs control, no drug: 0.938
- Outcome: inactive

MAP3K20 (mitogen-activated protein kinase kinase kinase 20) [SID152152597]
- viability z-score, no drug: 0.901
- viability vs control, no drug: 1
- Outcome: inactive

SGK1 (serum/glucocorticoid regulated kinase 1) [SID152156682]
- viability z-score, no drug: -0.143
- viability vs control, no drug: 0.92
- Outcome: inactive

THNSL1 (threonine synthase like 1) [SID152147285]
- viability z-score, no drug: 0.901
- viability vs control, no drug: 1
- Outcome: inactive

TK2 (thymidine kinase 2) [SID152153963]
- viability z-score, no drug: 0.901
- viability vs control, no drug: 1
- Outcome: inactive

DYRK2 (dual specificity tyrosine phosphorylation regulated kinase 2) [SID152156553]
- viability z-score, no drug: -1.79
- viability vs control, no drug: 0.794
- Outcome: inactive

RFK (riboflavin kinase) [SID152154046]
- viability z-score, no drug: -0.108
- viability vs control, no drug: 0.923
- Outcome: inactive
